# Assay results reported in the supplement of paper PMC9135407.
# Values joined by “and” are separate entries in the source; they are usually repeats but may differ in a detail not shown here. Identical values can stand only once. Counter-ions that a name gives are not always drawn. ± gives the standard deviation of the averaged measurements. This is one part of the list. Baselines shift from plate to plate; read single values as rough.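 Assay uses culture-activated primary human stellate myofibroblasts; lipid droplet recovery indicates inactivation. Measured: proportion of Hoechst-counted cells over a plate-specific Bodipy cutoff, duplicate wells, DMSO and nortriptyline as per-plate negative and positive controls. A hit scores, control-normalized, above the plate's top-tenth-percentile nortriptyline wells or ranks among its three best wells. Final well concentrations not reported.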
# System: primary human hepatic stellate cells (donor 1)
# Assay: percent Bodipy-positive cells; higher = more lipid droplet accumulation
# Conditions: 48 h
# [1] = library stock concentration: 10 mM
# [2] = library stock concentration: 3.33 mM
# [3] = library stock concentration: 1 mM
# [4] = library stock concentration: 5.3 mM
structure (smiles),measurement,setting,value
CN(C)CC/C=C1/c2ccccc2COc2ccc(CC(=O)O)cc21,percent Bodipy-positive cells,[1],9.62 ± 5.2%
CN(C)CC/C=C1/c2ccccc2COc2ccc(CC(=O)O)cc21 [Olopatadine HCl],percent Bodipy-positive cells,[2],11.2 ± 4.4%
same,percent Bodipy-positive cells,[1],12.4 ± 4.4%
CN(C)CC/C=C1/c2ccccc2COc2ccc(CC(=O)O)cc21 [Olopatadine],percent Bodipy-positive cells,library stock concentration: 5.9 mM,9.17 ± 1.8%
COc1cc(/C=C/C(=O)N2CCCCCCC2)cc(OC)c1OC,percent Bodipy-positive cells,[1],30.6 ± 7.2%
Clc1ccc(N2CCN(Cc3cc4ccccn4n3)CC2)cc1,percent Bodipy-positive cells,[1],33.5 ± 8.5%
c1nc(CC2CCNCC2)c[nH]1 [Immepip dihydrobromide],percent Bodipy-positive cells,[1],9.32 ± 1%
O=C(O)C1=CCCN(CCON=C(c2ccccc2)c2ccccc2)C1 [NO-711 hydrochloride],percent Bodipy-positive cells,[1],41.6 ± 5.3%
O=C(O)C1=CCCN(CCON=C(c2ccccc2)c2ccccc2)C1,percent Bodipy-positive cells,[1],4.9 ± 0.95%
CC(C)C(=O)Oc1ccc(CO)cc1[C@H](CCN(C(C)C)C(C)C)c1ccccc1.O=C(O)C=CC(=O)O [Fesoterodine Fumarate],percent Bodipy-positive cells,[1],88.7 ± 8.6%
c1ccc(CN(CC2=NCCN2)c2ccccc2)cc1 [Antazoline hydrochloride],percent Bodipy-positive cells,,59.6 ± 7.1%
same,percent Bodipy-positive cells,[1],24.2 ± 8.2%
c1ccc(CN(CC2=NCCN2)c2ccccc2)cc1 [Antazoline phosphate],percent Bodipy-positive cells,[1],39.9 ± 6.7%
c1ccc(CN(CC2=NCCN2)c2ccccc2)cc1 [Antazoline HCl],percent Bodipy-positive cells,[2],21.5 ± 11%
same,percent Bodipy-positive cells,[1],65.39 ± 0.24%
Nc1ncnc2n[nH]c(Nc3ccc(F)cc3)c12,percent Bodipy-positive cells,[3],15.8 ± 7.4%
same,percent Bodipy-positive cells,[2],21.2 ± 3%
same,percent Bodipy-positive cells,[1],22.8% and 13.3% and 6.06%
CC[C@H](C)C[C@H](C)CCCCCCCCC(=O)N[C@H]1C[C@@H](O)[C@@H](NCCN)NC(=O)[C@@H]2[C@@H](O)CCN2C(=O)[C@H]([C@H](O)CCN)NC(=O)[C@H]([C@H](O)[C@@H](O)c2ccc(O)cc2)NC(=O)[C@@H]2C[C@@H](O)CN2C(=O)[C@H]([C@@H](C)O)NC1=O [Caspofungin Acetate],percent Bodipy-positive cells,[2],8.79 ± 3.1%
same,percent Bodipy-positive cells,[1],40 ± 25%
CCn1cc(NC(=S)Nc2cc(Cl)ccc2OC)c(C(N)=O)n1,percent Bodipy-positive cells,[2],30.6 ± 6.4%
same,percent Bodipy-positive cells,[1],46 ± 2.5%
CN(C)Cc1ccc(S(=O)(=O)n2ccc(/C=C/C(=O)NO)c2)cc1 [Resminostat],percent Bodipy-positive cells,[2],54.6 ± 8.2%
same,percent Bodipy-positive cells,[1],88.4 ± 7.2%
COc1c(N2CCNC(C)C2)c(F)cc2c(=O)c(C(=O)O)cn(C3CC3)c12 (stereo not given) [Gatifloxacin],percent Bodipy-positive cells,[4],8.26% and 15.8%
same,percent Bodipy-positive cells,[1],37% and 20.5%
O=C(c1ccccc1)c1ccc2n1CCC2C(=O)O (stereo not given) [Ketorolac tris salt],percent Bodipy-positive cells,[1],34.5 ± 22%
O=C(c1ccccc1)c1ccc2n1CCC2C(=O)O (stereo not given) [Ketorolac tromethamine],percent Bodipy-positive cells,,9.55 ± 1%
same,percent Bodipy-positive cells,[4],10.4 ± 4%
same,percent Bodipy-positive cells,[1],44.2 ± 2.3%
O=C(c1ccccc1)c1ccc2n1CCC2C(=O)O (stereo not given) [Ketorolac (tromethamine salt)],percent Bodipy-positive cells,[3],11.9 ± 7.3%
O=C(c1ccccc1)c1ccc2n1CCC2C(=O)O (stereo not given),percent Bodipy-positive cells,[1],9.43 ± 2%
O=C(c1ccccc1)c1ccc2n1CCC2C(=O)O (stereo not given) [Ketorolac],percent Bodipy-positive cells,[2],9.04 ± 3.1%
same,percent Bodipy-positive cells,[1],13 ± 0.17%
CCOC(=O)[C@@](C)(N)Cc1ccc(O)c(O)c1 [Methyldopate hydrochloride],percent Bodipy-positive cells,,8.79 ± 2.3%
same,percent Bodipy-positive cells,library stock concentration: 7.3 mM,15.5 ± 7%
CCN(CC)CCCC(C)Nc1nc(C)cc(Nc2ccc3nc(C)cc(N)c3c2)n1 (stereo not given),percent Bodipy-positive cells,[2],28.9 ± 1.4%
OCc1ccccc1O [Salicyl alcohol],percent Bodipy-positive cells,[1],10.1 ± 1.7%
same,percent Bodipy-positive cells,library stock concentration: 16.1 mM,12 ± 3.2%
CNC(=O)[C@H]1O[C@@H](n2cnc3c(NCc4cccc(I)c4)nc(Cl)nc32)[C@H](O)[C@@H]1O,percent Bodipy-positive cells,[1],10.7 ± 2%
CNC(=O)[C@H]1O[C@@H](n2cnc3c(NCc4cccc(I)c4)nc(Cl)nc32)[C@H](O)[C@@H]1O [Chloro-IB-MECA],percent Bodipy-positive cells,[1],44.6 ± 1.8%
O=C(C[S+]([O-])Cc1ccco1)NC/C=C\COc1cc(CN2CCCCC2)ccn1 (stereo not given) [Lafutidine],percent Bodipy-positive cells,[2],8.81 ± 6.1%
same,percent Bodipy-positive cells,[1],11.3 ± 0.74%
Fc1ccc([C@@H]2CCNC[C@H]2COc2ccc3c(c2)OCO3)cc1 [Paroxetine HCl],percent Bodipy-positive cells,library stock concentration: 6.1 mM,69.1 ± 2.6%
C#CCC(Cc1cnc2nc(N)nc(N)c2n1)c1ccc(C(=O)N[C@@H](CCC(=O)O)C(=O)O)cc1 (stereo not given in full) [Pralatrexate],percent Bodipy-positive cells,[2],13.9 ± 5.8%
same,percent Bodipy-positive cells,[1],30.8 ± 9.4%
O=[N+]([O-])c1cccc2c[nH]nc12,percent Bodipy-positive cells,[1],11.3 ± 8.2%
CC(C)(C)NCC(O)COc1cccc2[nH]c(=O)[nH]c12 (stereo not given),percent Bodipy-positive cells,[1],37.5 ± 3.9%
Cl.Fc1ccc([C@@H]2CCNC[C@H]2COc2ccc3c(c2)OCO3)cc1 [Paroxetine Hydrochloride],percent Bodipy-positive cells,,79.1 ± 3.3%
"O=C(O)c1ccc2c(c1)CCCC2 [5,6,7,8-tetrahydro-2-Naphthoic Acid]",percent Bodipy-positive cells,[3],9.06 ± 3.2%
CN(CC[C@@H](Oc1ccc(-c2ccccc2)cc1)c1ccc(F)cc1)CC(=O)O [ALX 5407 hydrochloride],percent Bodipy-positive cells,[1],8.88 ± 4.3%
CN(C)CC(c1ccc(O)cc1)C1(O)CCCCC1 (stereo not given) [Desvenlafaxine],percent Bodipy-positive cells,[2],12.2 ± 1.5%
same,percent Bodipy-positive cells,[1],33.4 ± 11%
CN(C)CC(c1ccc(O)cc1)C1(O)CCCCC1 (stereo not given),percent Bodipy-positive cells,[1],35.6 ± 10%
CN(C)CC(c1ccc(O)cc1)C1(O)CCCCC1 (stereo not given) [Desvenlafaxine Succinate],percent Bodipy-positive cells,[2],7.98 ± 2.7%
same,percent Bodipy-positive cells,[1],40.3 ± 16%
NC(=O)[C@@H]1CCCN1C(=O)[C@H](Cc1c[nH]cn1)NC(=O)[C@@H]1CCC(=O)N1,percent Bodipy-positive cells,[1],30.4 ± 15%
O=C(NOCC(O)CO)c1cc(Br)c(F)c(F)c1Nc1ccc(I)cc1F (stereo not given),percent Bodipy-positive cells,[2],5.54 ± 1.9%
same,percent Bodipy-positive cells,[1],15.6 ± 5.7%
"N#CCCc1ccc2c(c1)-c1[nH]c3ccc([N+](=O)[O-])cc3c1CC(=O)N2 [Alsterpaullone, 2-Cyanoethyl]",percent Bodipy-positive cells,[2],40.9 ± 1.8%
O=C(Nc1ccccc1Br)N[C@@H]1CCN(c2ccc(C(F)(F)F)cn2)C1,percent Bodipy-positive cells,[2],10.6 ± 2%
same,percent Bodipy-positive cells,[1],22.5 ± 2.2%
COc1ccc(S(=O)(=O)N(CCO)c2ccccc2CN(C)C/C=C/c2ccc(Cl)cc2)cc1 [KN-93 Phosphate],percent Bodipy-positive cells,[2],63.4 ± 6.2%
CCCCCCCCCCCCCCCC(=O)NC[C@@H](C)O [R-Palmitoyl-(2-methyl) Ethanolamide],percent Bodipy-positive cells,[3],18.6 ± 14%
CC(=O)Oc1cccc(C)c1 [meta-CRESYL ACETATE],percent Bodipy-positive cells,[1],33 ± 10%
COc1ccc2c(c1)c(CC(=O)Nc1cccnc1)c(C)n2C(=O)c1ccc(Cl)cc1 [N-(3-pyridyl)-Indomethacin amide],percent Bodipy-positive cells,[3],22.5 ± 0.46%
CC(C)Oc1ccc(C(=O)N[C@H](CNC(=O)CN(C)C)Cc2ccc(-c3cn4cccc([C@H](C)O)c4n3)cc2)cc1Cl,percent Bodipy-positive cells,[1],90.5 ± 3%
NS(=O)(=O)c1ccc(-n2nc(C(F)(F)F)cc2-c2ccc(Cl)cc2)cc1,percent Bodipy-positive cells,[1],54.8 ± 12%
COc1cccc(C(=O)NCCN2CCN(c3ccc(Cl)cc3)CC2)c1,percent Bodipy-positive cells,[1],64 ± 6.4%
CCCCC[C@@H](O)/C=C/[C@H]1[C@H](O)CC(=O)[C@@H]1C/C=C\CCCC(=O)O [15(R)-Prostaglandin E2],percent Bodipy-positive cells,[3],17.6 ± 5.6%
